Among the data in the supplement of paper PMC10849652 are log2 fold change values, retold here.

By UniProt entry, the sequences of proteins in these tests, tags left out. Where a name states a change or a piece, a line headed by the entry shows the natural chain unless it says otherwise.
UniProt Q14393: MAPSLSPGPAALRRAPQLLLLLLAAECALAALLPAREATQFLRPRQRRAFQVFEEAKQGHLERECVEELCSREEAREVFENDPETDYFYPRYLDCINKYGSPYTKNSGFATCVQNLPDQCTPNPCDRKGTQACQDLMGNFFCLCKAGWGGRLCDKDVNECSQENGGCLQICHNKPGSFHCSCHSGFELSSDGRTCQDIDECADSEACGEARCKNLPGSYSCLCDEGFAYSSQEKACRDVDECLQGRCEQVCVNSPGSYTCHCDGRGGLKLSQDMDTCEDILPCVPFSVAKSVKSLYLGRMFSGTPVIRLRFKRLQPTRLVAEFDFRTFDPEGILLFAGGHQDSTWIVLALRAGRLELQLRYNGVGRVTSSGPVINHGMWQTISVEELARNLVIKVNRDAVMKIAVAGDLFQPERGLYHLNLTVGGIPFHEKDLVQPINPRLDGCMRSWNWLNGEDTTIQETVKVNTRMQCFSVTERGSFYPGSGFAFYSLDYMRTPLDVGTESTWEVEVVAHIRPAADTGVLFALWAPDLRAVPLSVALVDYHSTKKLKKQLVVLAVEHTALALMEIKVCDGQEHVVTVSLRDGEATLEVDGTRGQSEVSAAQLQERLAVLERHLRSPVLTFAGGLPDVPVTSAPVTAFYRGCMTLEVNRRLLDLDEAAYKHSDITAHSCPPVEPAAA
UniProt Q495W5: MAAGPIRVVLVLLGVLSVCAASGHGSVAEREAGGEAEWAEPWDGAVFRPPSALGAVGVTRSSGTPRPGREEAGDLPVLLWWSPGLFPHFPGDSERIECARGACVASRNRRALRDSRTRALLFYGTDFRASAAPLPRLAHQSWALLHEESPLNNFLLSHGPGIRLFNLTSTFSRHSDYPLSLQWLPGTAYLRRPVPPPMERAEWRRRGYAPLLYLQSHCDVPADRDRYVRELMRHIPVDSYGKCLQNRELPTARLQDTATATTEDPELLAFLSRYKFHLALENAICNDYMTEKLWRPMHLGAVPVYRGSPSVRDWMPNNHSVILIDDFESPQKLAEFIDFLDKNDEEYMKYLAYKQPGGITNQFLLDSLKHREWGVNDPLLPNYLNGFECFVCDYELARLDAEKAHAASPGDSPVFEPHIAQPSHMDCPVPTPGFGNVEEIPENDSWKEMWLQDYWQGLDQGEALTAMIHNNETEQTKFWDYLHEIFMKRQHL
UniProt Q14C86: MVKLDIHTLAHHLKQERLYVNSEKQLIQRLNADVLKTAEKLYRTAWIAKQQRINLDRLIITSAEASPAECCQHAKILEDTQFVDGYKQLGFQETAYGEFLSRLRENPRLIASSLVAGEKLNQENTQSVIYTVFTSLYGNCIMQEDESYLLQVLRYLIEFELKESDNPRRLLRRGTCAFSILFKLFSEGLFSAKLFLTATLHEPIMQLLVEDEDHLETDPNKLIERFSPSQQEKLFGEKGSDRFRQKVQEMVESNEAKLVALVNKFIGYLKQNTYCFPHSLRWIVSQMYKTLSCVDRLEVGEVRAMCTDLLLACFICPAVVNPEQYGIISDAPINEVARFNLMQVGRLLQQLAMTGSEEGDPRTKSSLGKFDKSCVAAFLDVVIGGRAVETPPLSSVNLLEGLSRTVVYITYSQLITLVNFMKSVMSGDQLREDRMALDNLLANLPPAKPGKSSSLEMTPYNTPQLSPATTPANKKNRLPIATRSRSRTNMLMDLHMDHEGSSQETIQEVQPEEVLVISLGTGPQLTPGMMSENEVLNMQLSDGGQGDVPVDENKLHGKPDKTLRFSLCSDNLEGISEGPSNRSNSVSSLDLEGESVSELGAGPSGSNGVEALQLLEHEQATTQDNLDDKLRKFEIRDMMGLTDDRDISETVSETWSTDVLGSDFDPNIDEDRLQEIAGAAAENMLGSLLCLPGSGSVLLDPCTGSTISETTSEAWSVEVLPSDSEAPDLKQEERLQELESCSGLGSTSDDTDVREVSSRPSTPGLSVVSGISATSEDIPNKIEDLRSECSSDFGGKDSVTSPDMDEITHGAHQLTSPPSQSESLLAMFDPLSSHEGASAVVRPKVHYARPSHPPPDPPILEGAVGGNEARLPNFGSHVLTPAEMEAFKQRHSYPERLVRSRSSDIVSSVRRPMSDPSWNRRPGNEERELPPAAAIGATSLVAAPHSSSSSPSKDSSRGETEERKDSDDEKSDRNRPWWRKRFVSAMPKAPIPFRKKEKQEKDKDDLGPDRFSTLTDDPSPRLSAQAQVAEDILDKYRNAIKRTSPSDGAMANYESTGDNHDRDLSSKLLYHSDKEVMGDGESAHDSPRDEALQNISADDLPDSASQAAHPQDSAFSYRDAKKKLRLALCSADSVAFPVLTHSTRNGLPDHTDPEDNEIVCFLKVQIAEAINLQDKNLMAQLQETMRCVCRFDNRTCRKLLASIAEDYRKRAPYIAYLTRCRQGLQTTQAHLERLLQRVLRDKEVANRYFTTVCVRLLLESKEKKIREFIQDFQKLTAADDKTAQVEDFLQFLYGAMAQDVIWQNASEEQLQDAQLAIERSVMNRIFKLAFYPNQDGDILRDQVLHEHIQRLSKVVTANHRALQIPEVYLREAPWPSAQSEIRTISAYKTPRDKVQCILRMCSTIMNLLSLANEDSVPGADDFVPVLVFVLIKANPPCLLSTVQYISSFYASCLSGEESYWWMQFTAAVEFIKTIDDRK
UniProt P28676: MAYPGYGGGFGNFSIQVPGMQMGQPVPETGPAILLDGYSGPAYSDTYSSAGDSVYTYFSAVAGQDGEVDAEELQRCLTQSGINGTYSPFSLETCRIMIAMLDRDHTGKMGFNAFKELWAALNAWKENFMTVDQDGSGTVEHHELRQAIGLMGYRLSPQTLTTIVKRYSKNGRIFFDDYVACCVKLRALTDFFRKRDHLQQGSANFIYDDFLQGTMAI
UniProt Q13467, whole entry, looked up: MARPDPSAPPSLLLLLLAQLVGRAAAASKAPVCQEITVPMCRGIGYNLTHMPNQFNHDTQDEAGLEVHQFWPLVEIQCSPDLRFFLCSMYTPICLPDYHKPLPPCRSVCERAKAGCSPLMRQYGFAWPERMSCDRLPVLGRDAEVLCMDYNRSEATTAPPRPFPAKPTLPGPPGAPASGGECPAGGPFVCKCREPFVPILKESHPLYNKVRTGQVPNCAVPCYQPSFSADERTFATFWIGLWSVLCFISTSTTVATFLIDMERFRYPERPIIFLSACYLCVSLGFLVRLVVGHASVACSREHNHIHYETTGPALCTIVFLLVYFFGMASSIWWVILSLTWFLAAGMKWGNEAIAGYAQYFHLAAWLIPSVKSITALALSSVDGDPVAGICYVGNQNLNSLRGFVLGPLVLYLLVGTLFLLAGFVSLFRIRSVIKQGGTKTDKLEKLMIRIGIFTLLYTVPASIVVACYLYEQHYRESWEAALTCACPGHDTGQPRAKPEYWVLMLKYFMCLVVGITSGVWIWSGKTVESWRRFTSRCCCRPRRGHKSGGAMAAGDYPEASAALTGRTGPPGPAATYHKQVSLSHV
UniProt Q9NZC3: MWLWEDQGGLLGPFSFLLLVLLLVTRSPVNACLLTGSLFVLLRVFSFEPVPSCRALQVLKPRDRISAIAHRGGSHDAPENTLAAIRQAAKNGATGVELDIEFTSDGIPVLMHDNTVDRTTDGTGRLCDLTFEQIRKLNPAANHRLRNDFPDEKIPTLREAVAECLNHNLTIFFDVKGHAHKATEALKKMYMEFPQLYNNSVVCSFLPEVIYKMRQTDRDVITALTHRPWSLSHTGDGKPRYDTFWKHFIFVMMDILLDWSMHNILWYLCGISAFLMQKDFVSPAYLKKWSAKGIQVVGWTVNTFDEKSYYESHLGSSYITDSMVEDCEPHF
UniProt P58012: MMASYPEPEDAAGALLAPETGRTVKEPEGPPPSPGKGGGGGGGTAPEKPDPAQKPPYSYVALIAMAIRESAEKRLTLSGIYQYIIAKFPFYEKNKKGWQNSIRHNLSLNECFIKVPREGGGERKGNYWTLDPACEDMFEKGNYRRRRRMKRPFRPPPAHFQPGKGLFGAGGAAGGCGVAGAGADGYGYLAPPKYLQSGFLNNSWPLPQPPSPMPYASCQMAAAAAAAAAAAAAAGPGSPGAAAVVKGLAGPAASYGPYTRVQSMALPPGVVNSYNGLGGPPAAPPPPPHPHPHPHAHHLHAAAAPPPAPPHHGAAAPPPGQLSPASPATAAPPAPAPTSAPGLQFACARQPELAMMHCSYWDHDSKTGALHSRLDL
UniProt P32456: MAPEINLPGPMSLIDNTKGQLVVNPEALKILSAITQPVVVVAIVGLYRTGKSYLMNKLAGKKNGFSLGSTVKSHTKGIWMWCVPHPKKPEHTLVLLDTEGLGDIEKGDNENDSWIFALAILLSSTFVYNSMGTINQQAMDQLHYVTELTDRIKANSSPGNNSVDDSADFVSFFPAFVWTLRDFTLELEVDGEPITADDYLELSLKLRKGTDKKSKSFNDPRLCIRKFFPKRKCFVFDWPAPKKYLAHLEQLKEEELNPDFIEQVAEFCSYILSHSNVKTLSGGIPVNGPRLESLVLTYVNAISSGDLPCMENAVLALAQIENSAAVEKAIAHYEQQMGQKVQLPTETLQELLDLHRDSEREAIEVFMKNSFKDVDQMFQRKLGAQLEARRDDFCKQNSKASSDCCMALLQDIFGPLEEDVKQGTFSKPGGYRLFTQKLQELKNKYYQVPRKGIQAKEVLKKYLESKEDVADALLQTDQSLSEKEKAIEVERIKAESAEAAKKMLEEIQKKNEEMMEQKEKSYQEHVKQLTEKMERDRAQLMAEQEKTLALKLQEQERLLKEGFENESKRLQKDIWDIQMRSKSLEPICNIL
UniProt Q8TAK5: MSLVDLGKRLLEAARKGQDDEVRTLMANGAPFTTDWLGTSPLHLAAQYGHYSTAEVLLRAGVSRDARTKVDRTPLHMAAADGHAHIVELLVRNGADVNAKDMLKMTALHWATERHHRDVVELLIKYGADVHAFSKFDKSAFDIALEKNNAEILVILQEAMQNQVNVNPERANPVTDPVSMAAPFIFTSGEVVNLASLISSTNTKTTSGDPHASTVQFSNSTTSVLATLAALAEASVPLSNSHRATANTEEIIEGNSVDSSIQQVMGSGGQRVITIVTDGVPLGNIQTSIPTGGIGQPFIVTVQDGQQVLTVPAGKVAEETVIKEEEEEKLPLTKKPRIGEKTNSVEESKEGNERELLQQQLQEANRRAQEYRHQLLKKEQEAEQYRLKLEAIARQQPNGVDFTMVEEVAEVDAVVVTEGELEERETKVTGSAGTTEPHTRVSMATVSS
UniProt Q9H840: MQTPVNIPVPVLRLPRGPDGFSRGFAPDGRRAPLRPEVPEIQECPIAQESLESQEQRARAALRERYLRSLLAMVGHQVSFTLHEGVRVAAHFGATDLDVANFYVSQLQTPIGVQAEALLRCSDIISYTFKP
UniProt Q9UM11, whole entry, looked up: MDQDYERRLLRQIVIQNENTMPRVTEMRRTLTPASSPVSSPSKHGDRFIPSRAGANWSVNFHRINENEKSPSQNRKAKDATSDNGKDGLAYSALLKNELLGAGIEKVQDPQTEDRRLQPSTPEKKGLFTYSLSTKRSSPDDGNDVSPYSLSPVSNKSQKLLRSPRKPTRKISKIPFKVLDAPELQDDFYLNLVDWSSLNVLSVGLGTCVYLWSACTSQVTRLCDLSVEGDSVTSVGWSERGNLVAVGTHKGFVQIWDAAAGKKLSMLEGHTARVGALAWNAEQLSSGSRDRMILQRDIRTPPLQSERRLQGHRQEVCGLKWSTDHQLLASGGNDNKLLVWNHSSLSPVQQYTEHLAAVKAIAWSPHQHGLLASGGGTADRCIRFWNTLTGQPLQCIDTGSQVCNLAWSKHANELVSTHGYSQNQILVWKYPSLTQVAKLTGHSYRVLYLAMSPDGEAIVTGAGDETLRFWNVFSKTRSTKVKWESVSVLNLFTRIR
UniProt P98177: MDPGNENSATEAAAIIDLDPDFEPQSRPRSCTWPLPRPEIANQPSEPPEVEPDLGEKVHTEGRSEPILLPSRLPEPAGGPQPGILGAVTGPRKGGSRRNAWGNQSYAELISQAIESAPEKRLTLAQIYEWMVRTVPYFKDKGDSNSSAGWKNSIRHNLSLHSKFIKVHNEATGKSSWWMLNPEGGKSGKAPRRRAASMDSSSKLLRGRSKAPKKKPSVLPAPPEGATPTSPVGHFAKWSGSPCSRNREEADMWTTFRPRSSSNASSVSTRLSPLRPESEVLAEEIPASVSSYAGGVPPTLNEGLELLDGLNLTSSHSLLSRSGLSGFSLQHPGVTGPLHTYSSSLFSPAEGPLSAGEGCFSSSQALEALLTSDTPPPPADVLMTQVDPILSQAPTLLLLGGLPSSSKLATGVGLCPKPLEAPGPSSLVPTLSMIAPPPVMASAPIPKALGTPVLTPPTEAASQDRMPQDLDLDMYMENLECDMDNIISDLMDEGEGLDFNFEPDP

The other results are listed elsewhere or left out.

Compound in one test: CCCS(=O)(=O)Nc1ccc(F)c(C(=O)c2c[nH]c3ncc(Cl)cc23)c1F
The test can be described thus: log2 fold change, soluble protein after heating vs DMSO (PISA); higher = thermal stabilisation; K562 lysate, 10 uM; active = over 0.2 and 3.5 SD of the protein, either way, in both replicates (recomputed). An outline of the steps: (§1)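 The values are log-two fold changes in thermal stability compared with solvent controls and come from duplicates. They were obtained by TMTpro 16plex LC-MS/MS, with channel sums equalised, on the supernatant after 21,000xg for 90 min. That supernatant came from crude K562 extract at 1 mg/mL protein treated with 10 μM compound for 30 min, heated for 3 min across 48°C-58°C, pooled and brought to 0.5% NP-40 at 4°C.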
Turning to GAS6 isoform 1 (UniProt Q14393), the log2 fold change is inactive: -0.135. For GFI1B (UniProt Q5VTD9), the log2 fold change is inactive: -0.259.

As to FUT11 (UniProt Q495W5), the log2 fold change was inactive: -0.14. FUT8 (UniProt Q9BYC5): the log2 fold change is inactive: -0.026. Consider FSIP2 (UniProt Q5CZC0), for which the log2 fold change was inactive: -0.005.

Turning to GAPVD1 (UniProt Q14C86), the log2 fold change was inactive: 0.116. Same read-out and setting: the value for GCA (UniProt P28676) was inactive: 0.124; that for GARS1 (UniProt H7C443) was inactive: 0.012; that for GFOD1 (UniProt Q9NXC2) was inactive: 0.07. With G3BP2 isoform 2 (UniProt Q9UN86), the log2 fold change is inactive: 0.119. As to GANC (UniProt Q8TET4), the log2 fold change was inactive: -0.097. In the case of FZD5 (UniProt Q13467), the log2 fold change was inactive: -0.076.

For the target GATA1 (UniProt P15976), the log2 fold change was inactive: 0.052. Same read-out and setting: the value for GBA2 (UniProt Q9HCG7) was inactive: 0.12; that for GDE1 (UniProt Q9NZC3) was inactive: 0.038. In the case of GART (UniProt C9JZG2), the log2 fold change is inactive: -0.014.

Take FOXL2 (UniProt P58012): the log2 fold change is inactive: 0.026. On the same count and under the same terms, under GBP2 (UniProt P32456) stands inactive: 0.02.

Compound in another test: CCN(CCCOc1ccc2c(Nc3cc(CC(=O)Nc4cccc(F)c4)[nH]n3)ncnc2c1)CCOP(=O)(O)O [barasertib]
Described as above. An outline of the steps: as §1
Take GAS6 isoform 1 (UniProt Q14393): the log2 fold change is inactive: -0.011. In the case of GALNT3 (UniProt Q14435), the log2 fold change was inactive: 0.008. On the same count and under the same terms, the value for FUT11 (UniProt Q495W5) was inactive: -0.158.

Consider FUT8 (UniProt Q9BYC5), for which the log2 fold change was inactive: 0.251.

As for GAPVD1 (UniProt Q14C86), the log2 fold change was inactive: 0.078. The same measure, in the same setting: under GARS1 (UniProt H7C443) stands inactive: 0.063; under GABPB2 (UniProt Q8TAK5), inactive: 0.094. Still for that read-out and setting: under GEMIN7 (UniProt Q9H840) stands inactive: 0.304; under FZD5 (UniProt Q13467), inactive: 0.112; under FZR1 isoform 2 (UniProt Q9UM11), inactive: 0.026.

As for FOXO4 (UniProt P98177), the log2 fold change is inactive: 0.063. As for GATA1 (UniProt P15976), the log2 fold change was inactive: 0.135. On the same count and under the same terms, the value for GBA2 (UniProt Q9HCG7) was inactive: -0.01; that for GDE1 (UniProt Q9NZC3) was inactive: 0.108; that for GART (UniProt C9JZG2) was inactive: 0.086. Still for that read-out and setting: the value for FOXL2 (UniProt P58012) was inactive: 0.051.
